The structures given here were assigned with low confidence; some may be wrong.
How the values were obtained:
Assay type in all cases: in vitro ADME
[1] = Metabolic stability assay in human liver microsomes (HLM; Protocols 1 and 2); settings: Protocol 1, 1 μM, NADPH, 37° C., tested form: HCl
[2] = Metabolic stability assay in rat liver microsomes (RLM; Protocols 1 and 2); settings: Protocol 1, 1 μM, NADPH, 37° C., tested form: HCl
[3] = Human plasma stability (Protocols 1 and 2); settings: Protocol 2, plasma pH 7.4 to 8.0, 5 μM, 37° C., tested form: HCl

With `COc1cc(F)cc2[nH]cc(C(=O)OCC34CCN(CC3)CC4)c12` the HLM [1] was 8 mL/min/kg, the RLM [2] was 433.66 mL/min/kg and the “% Remaining @ 2 h” value [3] was 48.22%.

Source: US20170166561A1, “QUINUCLIDINE COMPOUNDS FOR MODULATING ALPHA7-NICOTINIC ACETYLCHOLINE RECEPTOR ACTIVITY” (Alpharmagen, LLC, priority 2014, published 2017)
